Consider one molecule from US20250188189A1.

Chains of the proteins cited; added tags and fusions are not shown. Lines headed by an entry give the natural chain unless they say otherwise; changes in a name come on top.
UniProt P04070: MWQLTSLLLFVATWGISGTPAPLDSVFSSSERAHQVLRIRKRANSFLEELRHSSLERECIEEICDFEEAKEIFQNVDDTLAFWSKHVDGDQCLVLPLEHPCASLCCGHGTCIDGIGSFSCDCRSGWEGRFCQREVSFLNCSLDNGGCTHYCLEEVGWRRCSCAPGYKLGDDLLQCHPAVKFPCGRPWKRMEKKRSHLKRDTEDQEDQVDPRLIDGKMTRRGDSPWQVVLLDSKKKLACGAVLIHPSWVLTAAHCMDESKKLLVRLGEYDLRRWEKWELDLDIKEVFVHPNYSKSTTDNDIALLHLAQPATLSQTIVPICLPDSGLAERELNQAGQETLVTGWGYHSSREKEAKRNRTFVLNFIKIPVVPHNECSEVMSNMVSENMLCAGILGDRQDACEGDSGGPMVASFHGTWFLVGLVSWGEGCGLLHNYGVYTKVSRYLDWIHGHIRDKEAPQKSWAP

The target of this experiment is plasma-derived human activated protein C (APC) (human) (UniProt P04070). Briefly: affinity comparison with the parent; SPR screen as in Example 2 (FIG. 12).

These are yes or no findings as the source states them, for the method shown. Some binding calls cover weakened binding; strength is not graded here.

B1: TPP-29853 (antibody, human IgG4 S228P, kappa, V domains shown)
VH: EVQLVESGGGLVQPGGSLRLSCAASGFTFSNYYMNWVRQAPGKGLEWVSYISSSSSTIYYADSVKGRFTISRDDSKNSLYLQMNSLKTEDTAVYYCAREGDYMDYWGQGTLVTVSS
VL: EIVLTQSPGTLSLSPGERATLSCRASQSVSSFGATFMHWYQQKPGQPPKLLIYLASNRASGVPDRFSGSGSGTDFTLKISRVEAEDVGVYYCQQNNEDPYTFGQGTKLEIKR
As for B1, the binding entry is on record as “binds”.
